{
  "sequences": {"note": "Chains of the proteins cited; added tags and fusions are not shown.", "UniProt Q9ULE0": "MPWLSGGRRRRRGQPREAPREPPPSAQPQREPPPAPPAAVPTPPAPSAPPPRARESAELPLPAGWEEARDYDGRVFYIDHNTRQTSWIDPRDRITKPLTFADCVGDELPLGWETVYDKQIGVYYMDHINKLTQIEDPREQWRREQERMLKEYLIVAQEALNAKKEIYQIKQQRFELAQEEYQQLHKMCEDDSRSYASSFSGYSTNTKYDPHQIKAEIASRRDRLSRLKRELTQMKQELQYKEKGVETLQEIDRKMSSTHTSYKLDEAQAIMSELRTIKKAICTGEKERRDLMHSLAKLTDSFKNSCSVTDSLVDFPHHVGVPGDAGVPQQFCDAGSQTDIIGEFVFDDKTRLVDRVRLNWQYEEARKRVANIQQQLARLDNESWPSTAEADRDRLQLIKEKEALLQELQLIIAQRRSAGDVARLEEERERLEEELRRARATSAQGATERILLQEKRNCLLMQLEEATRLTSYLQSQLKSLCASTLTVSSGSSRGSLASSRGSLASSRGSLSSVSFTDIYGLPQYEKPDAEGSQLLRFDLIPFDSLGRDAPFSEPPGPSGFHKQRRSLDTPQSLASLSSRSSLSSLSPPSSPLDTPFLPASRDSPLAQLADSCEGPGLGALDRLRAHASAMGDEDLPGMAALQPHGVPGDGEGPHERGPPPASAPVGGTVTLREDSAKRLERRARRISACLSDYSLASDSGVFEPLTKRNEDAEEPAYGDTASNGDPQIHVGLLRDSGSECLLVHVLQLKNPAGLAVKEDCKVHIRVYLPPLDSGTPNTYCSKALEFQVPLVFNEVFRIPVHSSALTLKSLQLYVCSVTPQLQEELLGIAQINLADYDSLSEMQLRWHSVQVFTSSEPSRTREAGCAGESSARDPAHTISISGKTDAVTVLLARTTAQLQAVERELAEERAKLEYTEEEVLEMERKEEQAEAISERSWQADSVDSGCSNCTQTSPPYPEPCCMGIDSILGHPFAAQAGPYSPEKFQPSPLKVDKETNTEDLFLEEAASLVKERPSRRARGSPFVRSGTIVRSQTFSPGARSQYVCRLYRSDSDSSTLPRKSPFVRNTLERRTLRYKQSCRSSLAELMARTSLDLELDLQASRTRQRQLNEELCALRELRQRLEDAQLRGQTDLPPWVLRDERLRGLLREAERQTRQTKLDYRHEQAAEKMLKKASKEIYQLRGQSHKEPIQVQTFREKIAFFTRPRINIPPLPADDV"},
  "source": "paper PMC8035140",
  "molecules": {"B1": {"name": "WW domain binding protein-2 (WBP2), endogenous in H1299 (protein, UniProt Q969T9 1-261)", "chain": "MALNKNHSEGGGVIVNNTESILMSYDHVELTFNDMKNVPEAFKGTKKGTVYLTPYRVIFLSKGKDAMQSFMMPFYLMKDCEIKQPVFGANYIKGTVKAEAGGGWEGSASYKLTFTAGGAIEFGQRMLQVASQASRGEVPSGAYGYSYMPSGAYVYPPPVANGMYPCPPGYPYPPPPPEFYPGPPMMDGAMGYVQPPPPPYPGPMEPPVSGPDVPSTPAAEAKAAEAAASAYYNPGNPHNVYMPTSQPPPPPYYPPEDKKTQ"}, "B2": {"name": "Myc-WBP2, wild type (protein, UniProt Q969T9 1-261)", "chain": "MALNKNHSEGGGVIVNNTESILMSYDHVELTFNDMKNVPEAFKGTKKGTVYLTPYRVIFLSKGKDAMQSFMMPFYLMKDCEIKQPVFGANYIKGTVKAEAGGGWEGSASYKLTFTAGGAIEFGQRMLQVASQASRGEVPSGAYGYSYMPSGAYVYPPPVANGMYPCPPGYPYPPPPPEFYPGPPMMDGAMGYVQPPPPPYPGPMEPPVSGPDVPSTPAAEAKAAEAAASAYYNPGNPHNVYMPTSQPPPPPYYPPEDKKTQ"}, "B3": {"name": "WBP2, endogenous in A549 (protein, UniProt Q969T9 1-261)", "chain": "MALNKNHSEGGGVIVNNTESILMSYDHVELTFNDMKNVPEAFKGTKKGTVYLTPYRVIFLSKGKDAMQSFMMPFYLMKDCEIKQPVFGANYIKGTVKAEAGGGWEGSASYKLTFTAGGAIEFGQRMLQVASQASRGEVPSGAYGYSYMPSGAYVYPPPVANGMYPCPPGYPYPPPPPEFYPGPPMMDGAMGYVQPPPPPYPGPMEPPVSGPDVPSTPAAEAKAAEAAASAYYNPGNPHNVYMPTSQPPPPPYYPPEDKKTQ"}},
  "key": {"[1]": {"molecular_target": "T1, LATS1 transfected into A549 cells (precipitated with anti-FLAG) (UniProt O95835)", "T1 sequence": "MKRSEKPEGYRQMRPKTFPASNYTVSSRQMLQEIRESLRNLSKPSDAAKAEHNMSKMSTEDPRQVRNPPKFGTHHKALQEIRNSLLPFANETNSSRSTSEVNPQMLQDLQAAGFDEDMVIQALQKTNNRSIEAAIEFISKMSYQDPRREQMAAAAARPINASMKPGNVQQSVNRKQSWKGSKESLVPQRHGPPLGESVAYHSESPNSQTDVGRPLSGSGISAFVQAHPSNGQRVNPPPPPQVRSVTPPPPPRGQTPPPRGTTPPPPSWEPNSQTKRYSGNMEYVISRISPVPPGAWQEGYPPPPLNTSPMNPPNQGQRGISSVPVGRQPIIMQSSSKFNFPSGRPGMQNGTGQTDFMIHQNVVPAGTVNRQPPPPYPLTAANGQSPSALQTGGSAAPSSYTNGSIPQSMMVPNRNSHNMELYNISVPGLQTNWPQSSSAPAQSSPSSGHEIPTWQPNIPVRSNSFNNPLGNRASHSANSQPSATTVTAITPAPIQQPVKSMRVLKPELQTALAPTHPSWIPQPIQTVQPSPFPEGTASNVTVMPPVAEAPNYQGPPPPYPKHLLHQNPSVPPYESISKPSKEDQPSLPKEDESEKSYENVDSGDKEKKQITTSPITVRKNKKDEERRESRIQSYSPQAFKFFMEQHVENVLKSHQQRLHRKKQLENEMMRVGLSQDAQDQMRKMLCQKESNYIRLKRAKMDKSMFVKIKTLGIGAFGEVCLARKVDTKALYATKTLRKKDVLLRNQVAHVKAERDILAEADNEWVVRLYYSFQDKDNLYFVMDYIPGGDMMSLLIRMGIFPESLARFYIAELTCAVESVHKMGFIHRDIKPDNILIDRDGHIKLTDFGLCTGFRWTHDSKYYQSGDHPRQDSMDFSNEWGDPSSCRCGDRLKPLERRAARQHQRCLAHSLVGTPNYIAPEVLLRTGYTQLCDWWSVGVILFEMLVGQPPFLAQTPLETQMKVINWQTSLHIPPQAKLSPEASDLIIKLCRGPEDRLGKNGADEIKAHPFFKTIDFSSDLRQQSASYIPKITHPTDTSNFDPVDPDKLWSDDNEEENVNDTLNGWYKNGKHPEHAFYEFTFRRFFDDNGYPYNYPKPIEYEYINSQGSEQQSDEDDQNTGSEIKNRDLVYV", "test": "co-IP; A549 cells, with siRNA-WBP2 (5 and 10 pmol); anti-FLAG immunoprecipitation followed by anti-WWC3 immunoblotting"}, "[2]": {"molecular_target": "GFP-WWC3 (WW and C2 domain-containing protein-3), wild type (UniProt Q9ULE0)", "test": "co-IP; H1299 cells transfected, lysed after 48 h; GFP monoclonal antibody for precipitation, western blot; also with WBP2 plasmid (1 and 2.5 ug) in a dose gradient or siRNA-LATS1"}, "[3]": {"molecular_target": "GST-WWC3 (WWC3 protein coupled to a GST label) (UniProt Q9ULE0)", "test": "pull-down; purified GST-WWC3 on glutathione sepharose beads incubated with lysate of H1299 cells transfected with Myc-WBP2, 4 C; western blot and Coomassie staining; only the target purified"}, "[4]": {"molecular_target": "WWC3, endogenous in A549 (human (endogenous in A549)) (UniProt Q9ULE0)", "test": "co-IP; A549 cells, with increasing LATS1 transfected; precipitating antibody not stated"}},
  "note": "These are yes or no findings as the source states them, for the method shown. In cells and extracts the contact can be indirect. Some binding calls cover weakened binding; strength is not graded here. For some assays here: Sequences can lack the tags named with a protein.",
  "data": [
    {"molecule": "WWC3, endogenous in A549 (from UniProt Q9ULE0 1-1216)", "values": [
      {"measurement": "binding", "setting": "[1]", "value": "binds"}
    ]},
    {"molecule": "B1", "values": [
      {"measurement": "binding", "setting": "[2]", "value": "binds"}
    ]},
    {"molecule": "B2", "values": [
      {"measurement": "binding", "setting": "[2]", "value": "binds"},
      {"measurement": "binding", "setting": "[3]", "value": "binds"}
    ]},
    {"molecule": "B3", "values": [
      {"measurement": "binding", "setting": "[4]", "value": "binds"}
    ]}
  ]
}
